# Assay results published in the supplement of paper PMC10338343.
# ± gives the standard deviation. Only a part is listed here, and it is no random draw. Many entries were measured with a wide error.
# System: MILI (PIWIL2) piRISC loaded with piRNA #1 (26 nt)
# Test: pre-steady-state target cleavage rate (min^-1); MIWI and MILI are mouse PIWI proteins and EfPiwi is from a freshwater sponge; tags in brackets are library labels; higher = faster piRNA-guided slicing of the target
# Settings: guide: piRNA #1 5'p-UGAGGUAGUAGGUUGUAUAGUAUCCA; auxiliary factor: 500 nM mouse GTSF1
# Outline: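 Sequencing of uncleaved targets, normalised to depth and to weakly complementary targets, was the readout of this Cleave-'n-Seq assay. A transcribed, DNA-blocked target RNA library (0.1 nM) was mixed with 1 nM active affinity-purified piRISC carrying one synthetic guide, with or without 500 nM GTSF1 partner protein, in HEPES–potassium acetate buffer at 33 °C for 0–8 or 0–960 min. Three trials were pooled, k3 was capped at 0.0001 min^-1, and a burst-and-steady-state fit gave the pre-steady-state cleavage rate.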
row,Sequence,pre-steady-state target cleavage rate
1,GGAGACCAUACUAUACAACCUACUAGGUCA,0.00208 ± 0.0046
2,GGAGACCUAUGAUAACAACCUACUAGCUGA,0.000616 ± 0.0087
3,GGAGUGGAUACUAUACUACCUACUACCACA,0.143 ± 0.013
4,GGAGACGAUACUAUACAAACUACUACCUCA,0.245 ± 0.015
5,GGAGACCUAUGAAUACAACCUACAUGGAGA [g8:g18:cont:t1A],0.000198 ± 0.022
6,GGAGACCUAUGAUAUGUACCUUCAACCUCA,< 0.0001
7,GGAGACGAUACUAUACAAUCCUACUACCUCA,0.00226 ± 0.0041
8,GGAGUGGAUACGAUACAACCUACUACCUCA,0.176 ± 0.011
9,GGAGACCUAUGAUAUGUUGCACUACCUCA,0.000126 ± 0.02
10,GGAGACCUAUGAUAACAGACCUACUACCUCA,0.00064 ± 0.0097
11,GGAGAGGAUACUAUACUAGCUACUACCUCA,0.113 ± 0.011
12,GGAGACCUAACUAUACAACCUACUACCUUA,0.12 ± 0.028
13,GGAGACCUAUGAUAUGAUCCAACUACCUCA,0.000235 ± 0.012
14,GGAGACCUAUGAUAUCUAGCUACUACCUCA,0.000106 ± 0.022
15,GGAGACGAUUCUAUACAACCUACUACCACA,0.219 ± 0.015
16,GGAGACCUAUGAAUAGAACCUACUACCACA,0.00136 ± 0.0033
17,GGAGAGGAUACUAUACAACCUACUUCCACA,0.00294 ± 0.0036

# Two entries picked at random from those above:
row,Sequence,pre-steady-state target cleavage rate
15,GGAGACGAUUCUAUACAACCUACUACCACA,0.219 ± 0.015
7,GGAGACGAUACUAUACAAUCCUACUACCUCA,0.00226 ± 0.0041
